PubChem BioAssay AID1159542 | Gurdon Institute – 2015

Assay: 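Screening all human E2 enzymes for effects on mutagenic break repair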
Cells: human U2OS cells with a traffic light reporter
Reagents: siRNA against human genes, about 60 nM siRNA
Duration: about 72 h
Conditions: I-SceI nuclease and repair donor plasmids transfected 8 h after siRNA to cut the reporter
Detection: 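Proportion of red reporter cells after a cut by I-SceI nuclease, measured by flow cytometry relative to a luciferase non-targeting control siRNA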
Direction: mutagenic end-joining vs control, mean: higher = more mutagenic end-joining than control
Hit rule: 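Active if the mean value relative to control falls under 0.6 or rises over 1.4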
Of all reagents, 9 (20%) got an active call. 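Means of three or more experiments; every active call is a decrease, none for increased end-joining.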 A number with no mark means an inactive call. The numbers tell different reagents against one gene apart.

gene,reagent no.,"mutagenic end-joining vs control, mean"
UBE2Q2,1,0.608
UBE2V2,1,0.515 (active)
UBE2D3,1,0.498 (active)
UBE2B,1,0.726
UBE2F,1,0.787
TSG101,1,0.684
UBE2H,1,0.673
UBE2S,1,0.989
UBE2D1,1,0.559 (active)
CDC34,1,0.649
UBE2U,1,0.652
UBE2E1,1,0.94
UBE2A,1,0.601
UBE2W,1,0.549 (active)
LIG3,1,0.689
LIG3,2,0.752
BIRC6,1,0.756
UBE2N,1,0.918
UBE2N,2,1.09
RBBP8,1,0.801
UBE2G1,1,0.728
UBE2C,1,0.732
UBE2T,1,0.509 (active)
UBE2Q1,1,1.06
UBE2E2,1,0.809
UEVLD,1,0.863
UBE2J1,1,0.566 (active)
UBE2E3,1,0.705
UBE2G2,1,0.758
UBE2D2,1,1.13
UBE2M,1,1.05
UBE2V1,1,0.513 (active)
UBE2L3,1,0.633
UBE2O,1,0.216 (active)
UBE2J2,1,0.819
UBE2R2,1,0.337 (active)
UBE2K,1,0.807
UBE2L6,1,0.688
UBE2Z,1,0.781
AKTIP,1,0.984
UBE2NL,1,0.744
UBE2D4,1,0.907
PRKDC,1,1.19

Sorted by “mutagenic end-joining vs control, mean” (highest first): 5 of the entries above
gene,reagent no.,"mutagenic end-joining vs control, mean"
UBE2F,1,0.787
UBE2B,1,0.726
TSG101,1,0.684
UBE2V2,1,0.515 (active)
UBE2D3,1,0.498 (active)
